Binding data for 1 substance are collected here from publication PMC5198986.

The test has as its target Plasmodium falciparum histone H2B (P. falciparum) (UniProt Q8IIV1). The test is described as follows: SEC; both purified. A general note: SEC sorts molecules by how far they enter the pores of the column.

Results are given in words; binding and its absence hold for the method and conditions named. Some binding calls cover weakened binding; strength is not graded here.

With “Plasmodium falciparum histone H2A (from UniProt P40282 1-132)”, the binding result is on record as “binds”.
